We go through three molecules from publication PMC11336912.

The chains behind the UniProt entries cited, without tags or fusion partners.
UniProt O75592: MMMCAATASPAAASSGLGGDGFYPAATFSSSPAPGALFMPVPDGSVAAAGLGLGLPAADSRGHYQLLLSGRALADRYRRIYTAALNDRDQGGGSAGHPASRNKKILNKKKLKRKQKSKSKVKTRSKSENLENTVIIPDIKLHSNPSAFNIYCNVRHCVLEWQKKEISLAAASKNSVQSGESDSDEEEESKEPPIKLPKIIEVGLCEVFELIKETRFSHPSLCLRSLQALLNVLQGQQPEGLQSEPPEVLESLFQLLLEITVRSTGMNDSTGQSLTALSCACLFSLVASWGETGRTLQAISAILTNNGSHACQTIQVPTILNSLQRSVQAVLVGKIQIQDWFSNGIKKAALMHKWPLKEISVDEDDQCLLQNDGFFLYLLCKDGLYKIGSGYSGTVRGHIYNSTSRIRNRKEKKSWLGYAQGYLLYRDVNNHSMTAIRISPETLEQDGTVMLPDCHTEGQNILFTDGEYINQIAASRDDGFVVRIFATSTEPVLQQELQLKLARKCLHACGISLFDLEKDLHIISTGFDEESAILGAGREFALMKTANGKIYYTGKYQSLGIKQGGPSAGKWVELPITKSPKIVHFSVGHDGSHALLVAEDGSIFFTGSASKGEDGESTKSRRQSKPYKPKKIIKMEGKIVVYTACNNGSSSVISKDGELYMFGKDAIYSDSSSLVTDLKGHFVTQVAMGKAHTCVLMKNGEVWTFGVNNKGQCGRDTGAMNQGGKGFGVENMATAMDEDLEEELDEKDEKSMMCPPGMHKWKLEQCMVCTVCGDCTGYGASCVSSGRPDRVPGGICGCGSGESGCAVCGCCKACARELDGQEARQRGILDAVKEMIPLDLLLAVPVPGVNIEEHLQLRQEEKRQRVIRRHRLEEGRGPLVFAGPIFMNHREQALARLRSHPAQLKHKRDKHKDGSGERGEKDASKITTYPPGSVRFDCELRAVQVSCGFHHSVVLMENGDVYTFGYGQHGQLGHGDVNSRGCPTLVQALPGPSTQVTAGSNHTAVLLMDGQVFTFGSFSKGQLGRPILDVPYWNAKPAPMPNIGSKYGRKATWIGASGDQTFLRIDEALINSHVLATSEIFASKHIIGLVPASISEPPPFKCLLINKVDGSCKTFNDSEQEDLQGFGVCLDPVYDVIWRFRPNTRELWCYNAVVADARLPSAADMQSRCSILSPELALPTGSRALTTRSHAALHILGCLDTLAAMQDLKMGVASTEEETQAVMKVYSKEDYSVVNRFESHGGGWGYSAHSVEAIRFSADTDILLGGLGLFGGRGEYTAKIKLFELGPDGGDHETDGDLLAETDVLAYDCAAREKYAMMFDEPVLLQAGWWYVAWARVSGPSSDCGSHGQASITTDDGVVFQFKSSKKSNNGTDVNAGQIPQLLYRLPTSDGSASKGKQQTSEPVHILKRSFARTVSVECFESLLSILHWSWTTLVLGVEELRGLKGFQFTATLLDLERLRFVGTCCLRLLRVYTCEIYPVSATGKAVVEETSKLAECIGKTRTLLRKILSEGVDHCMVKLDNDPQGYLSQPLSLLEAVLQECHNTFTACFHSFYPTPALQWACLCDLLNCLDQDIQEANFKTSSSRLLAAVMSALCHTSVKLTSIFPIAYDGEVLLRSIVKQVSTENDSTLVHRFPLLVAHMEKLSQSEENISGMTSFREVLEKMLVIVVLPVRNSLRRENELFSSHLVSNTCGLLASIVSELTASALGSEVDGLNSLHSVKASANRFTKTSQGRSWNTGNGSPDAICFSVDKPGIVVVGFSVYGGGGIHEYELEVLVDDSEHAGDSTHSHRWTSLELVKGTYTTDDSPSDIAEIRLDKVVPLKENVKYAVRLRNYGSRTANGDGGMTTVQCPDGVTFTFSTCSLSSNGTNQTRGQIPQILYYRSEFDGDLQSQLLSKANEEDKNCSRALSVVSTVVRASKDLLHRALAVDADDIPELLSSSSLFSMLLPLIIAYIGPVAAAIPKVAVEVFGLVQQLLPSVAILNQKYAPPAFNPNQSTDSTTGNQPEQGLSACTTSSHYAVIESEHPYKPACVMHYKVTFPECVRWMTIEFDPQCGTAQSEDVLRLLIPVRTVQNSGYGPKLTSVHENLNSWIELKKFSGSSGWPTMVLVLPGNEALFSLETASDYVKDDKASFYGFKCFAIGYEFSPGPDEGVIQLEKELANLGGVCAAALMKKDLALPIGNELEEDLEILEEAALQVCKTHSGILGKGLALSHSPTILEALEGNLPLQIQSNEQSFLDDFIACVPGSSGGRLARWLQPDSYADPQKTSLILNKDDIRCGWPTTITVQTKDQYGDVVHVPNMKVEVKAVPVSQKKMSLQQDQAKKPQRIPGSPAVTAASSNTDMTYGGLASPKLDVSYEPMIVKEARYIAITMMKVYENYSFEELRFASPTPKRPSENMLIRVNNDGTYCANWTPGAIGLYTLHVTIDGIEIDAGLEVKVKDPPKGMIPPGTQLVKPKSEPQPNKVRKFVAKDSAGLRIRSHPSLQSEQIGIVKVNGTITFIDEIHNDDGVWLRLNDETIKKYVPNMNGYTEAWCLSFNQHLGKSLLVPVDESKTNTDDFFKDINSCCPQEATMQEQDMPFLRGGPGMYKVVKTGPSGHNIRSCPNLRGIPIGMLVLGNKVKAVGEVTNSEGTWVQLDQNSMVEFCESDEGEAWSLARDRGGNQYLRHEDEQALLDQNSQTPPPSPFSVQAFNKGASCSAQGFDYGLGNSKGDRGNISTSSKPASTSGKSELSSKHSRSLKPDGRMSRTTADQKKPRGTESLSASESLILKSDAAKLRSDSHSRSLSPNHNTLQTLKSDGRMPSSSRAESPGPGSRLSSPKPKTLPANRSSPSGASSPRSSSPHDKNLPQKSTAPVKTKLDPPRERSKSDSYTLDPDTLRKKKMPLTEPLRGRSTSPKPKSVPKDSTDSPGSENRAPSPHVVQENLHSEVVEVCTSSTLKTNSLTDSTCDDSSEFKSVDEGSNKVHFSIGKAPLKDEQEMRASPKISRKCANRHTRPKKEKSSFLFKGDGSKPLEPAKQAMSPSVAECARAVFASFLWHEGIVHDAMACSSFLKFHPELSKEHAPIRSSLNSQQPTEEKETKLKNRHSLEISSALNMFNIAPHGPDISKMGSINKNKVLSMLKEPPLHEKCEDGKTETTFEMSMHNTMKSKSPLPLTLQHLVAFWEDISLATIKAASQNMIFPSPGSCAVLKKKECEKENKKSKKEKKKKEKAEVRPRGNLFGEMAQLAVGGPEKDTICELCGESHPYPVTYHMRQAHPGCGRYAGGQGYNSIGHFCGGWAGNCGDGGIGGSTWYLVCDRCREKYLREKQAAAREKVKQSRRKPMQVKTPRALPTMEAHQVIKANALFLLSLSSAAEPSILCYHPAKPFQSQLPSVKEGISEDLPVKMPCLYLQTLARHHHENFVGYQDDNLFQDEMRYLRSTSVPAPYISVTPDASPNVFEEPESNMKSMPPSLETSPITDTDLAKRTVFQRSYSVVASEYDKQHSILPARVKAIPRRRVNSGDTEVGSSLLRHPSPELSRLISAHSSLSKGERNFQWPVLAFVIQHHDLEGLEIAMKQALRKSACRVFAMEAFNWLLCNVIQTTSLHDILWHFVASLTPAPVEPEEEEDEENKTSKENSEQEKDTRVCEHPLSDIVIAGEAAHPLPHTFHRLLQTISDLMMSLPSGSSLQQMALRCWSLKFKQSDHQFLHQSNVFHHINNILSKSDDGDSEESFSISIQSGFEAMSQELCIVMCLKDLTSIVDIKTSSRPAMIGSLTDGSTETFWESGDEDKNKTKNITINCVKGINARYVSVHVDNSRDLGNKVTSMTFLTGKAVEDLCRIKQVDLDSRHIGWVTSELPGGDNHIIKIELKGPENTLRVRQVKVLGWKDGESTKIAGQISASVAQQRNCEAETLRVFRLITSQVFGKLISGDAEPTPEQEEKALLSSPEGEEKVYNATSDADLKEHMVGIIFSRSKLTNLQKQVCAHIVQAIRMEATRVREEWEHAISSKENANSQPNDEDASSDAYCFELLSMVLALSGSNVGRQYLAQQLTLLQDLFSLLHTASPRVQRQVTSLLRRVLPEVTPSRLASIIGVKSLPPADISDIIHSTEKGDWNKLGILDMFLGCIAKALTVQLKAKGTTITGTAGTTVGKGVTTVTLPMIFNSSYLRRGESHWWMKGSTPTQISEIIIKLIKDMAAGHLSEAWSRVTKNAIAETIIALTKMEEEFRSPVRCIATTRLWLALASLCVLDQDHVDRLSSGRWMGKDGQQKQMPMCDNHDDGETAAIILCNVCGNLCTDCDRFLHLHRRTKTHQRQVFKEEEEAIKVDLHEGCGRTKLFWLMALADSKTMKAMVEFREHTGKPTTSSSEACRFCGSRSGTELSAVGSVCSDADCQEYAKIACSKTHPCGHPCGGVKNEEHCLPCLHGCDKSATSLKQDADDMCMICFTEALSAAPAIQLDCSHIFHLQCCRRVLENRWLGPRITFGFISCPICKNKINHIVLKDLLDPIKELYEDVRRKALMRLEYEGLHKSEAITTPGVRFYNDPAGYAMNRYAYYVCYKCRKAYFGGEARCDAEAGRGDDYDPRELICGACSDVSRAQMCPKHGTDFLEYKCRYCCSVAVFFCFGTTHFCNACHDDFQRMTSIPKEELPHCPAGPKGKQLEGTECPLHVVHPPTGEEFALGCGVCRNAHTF

The target in one assay is T1, Myc-tagged S100A9 (UniProt P06702).
T1 sequence: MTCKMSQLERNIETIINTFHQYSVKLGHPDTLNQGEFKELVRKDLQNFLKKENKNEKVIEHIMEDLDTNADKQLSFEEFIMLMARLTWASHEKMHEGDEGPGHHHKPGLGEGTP
As to the kind of experiment: co-IP; HEK 293T cells overexpressing Flag-MYCBP2 and Myc-S100A9; Pierce Co-IP Kit, antibodies pre-bound to agarose beads, overnight at 4 °C; Western blot.

Assay [1] concerns the target T2, S100A9 (endogenous, microglia) (mouse (endogenous in primary microglia)) (UniProt P31725).
T2 sequence: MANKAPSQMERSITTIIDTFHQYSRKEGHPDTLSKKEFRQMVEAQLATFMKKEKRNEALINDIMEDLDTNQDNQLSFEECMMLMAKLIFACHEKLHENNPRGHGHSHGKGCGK
As to the kind of experiment: co-IP; endogenous proteins in microglia lysate; Pierce Co-IP Kit, antibodies pre-bound to agarose beads, overnight at 4 °C; Western blot; control IgG; forward and reverse. A general note: Immunoblotting shows a protein as a band on a membrane.

The target of assay [2] is MYCBP2 (endogenous, microglia) (mouse (endogenous in primary microglia)) (UniProt Q7TPH6). The description is as above.

No constants are given. Whether binding was seen depends on the method and setting. Binding seen in cells or lysates may run through a third protein. Some results given as binding are weak or reduced against the parent protein; the word gives no strength. For part of these data: Sequences can lack the tags named with a protein.

“Flag-tagged MYCBP2 (from UniProt O75592 1-4678)”: the binding entry with Myc-tagged S100A9 is listed as “binds”. As for “MYCBP2 (endogenous, microglia) (from UniProt Q7TPH6 1-4749)”, the binding entry in assay [1] is “binds”.

B1: S100A9 (endogenous, microglia) (protein, UniProt P31725 1-113)
chain: T2 sequence
Consider B1, for which, in assay [2], the binding result was “binds”.
